No constants are given. Whether binding was seen depends on the method and setting. Some entries that bind do so weakly or less than the wild type. Bridge positions count the residues as written; N and C are the ends. Ends that are not written are not given here.
Biological target: T1, U-II receptors (rat thoracic aorta tissue) (rat) (UniProt P49684)
T1 sequence (looked up): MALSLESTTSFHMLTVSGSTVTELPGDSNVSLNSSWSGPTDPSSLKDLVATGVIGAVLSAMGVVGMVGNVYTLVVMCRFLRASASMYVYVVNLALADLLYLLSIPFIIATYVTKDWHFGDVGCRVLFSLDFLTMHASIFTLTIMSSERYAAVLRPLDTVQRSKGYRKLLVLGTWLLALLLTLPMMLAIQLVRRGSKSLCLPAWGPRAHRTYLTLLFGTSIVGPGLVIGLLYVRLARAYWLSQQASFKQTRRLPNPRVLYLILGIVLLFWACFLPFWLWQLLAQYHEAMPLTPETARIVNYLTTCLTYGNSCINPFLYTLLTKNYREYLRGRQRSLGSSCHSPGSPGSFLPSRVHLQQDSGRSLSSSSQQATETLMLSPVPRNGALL
Assay: binding to rat aorta tissue; method not described

In the case of DCFWKYCV (cyclic via Cys2-Cys7 (c[...]); C-terminal free acid (-OH)) [Asp-c[Cys-Phe-Trp-Lys-Tyr-Cys]-Val-OH], the binding is reported as “binds”.

From patent US20070287665A1 (SOCIETE DE CONSEILS DE RECHERCHES ET D APPLICATIONS …, published 2007)
